In patent US20190022225A1, “PROTOCOL FOR INCREASING LIFE EXPECTANCY IN A TEST SUBJECT” (Mayo Foundation for Medical Education and Research, priority 2015, published 2019):
At least one structure is not confirmed: it was looked up by name or label, or the drawing left a doubt.

Tested on: senescent (irradiated) IMR90 cells
Assay: CellTiter-Glo cell viability assay, senescent IMR90
Type: cell-based, human
Method: To determine whether ABT-263 is selectively toxic to senescent cells compared to non-senescent cells, a cell viability assay was used to assess cell survival following treatment with ABT-263. IMR90 cells (human primary lung fibroblasts (IMR90) (IMR-90 (ATCC® CCL-186™, Mannassas, Va.) were seeded in six well plates, and cells were induced to senescence with 10 Gy of ionizing radiation (IR) (Day 0). The media was refreshed every 3 days. The senescent phenotype is allowed to develop for 7 days at which point a cell count was made to determine the baseline number of cells followed by seeding into 96-well plates. On day 8, the senescent cells (irradiated) and the non-senescent cells (the non-radiated cells), were exposed to serial dilutions of ABT-263 for a period of 3 days. ABT-263 concentrations ranged from 0.5 nM to 3 μM. Each condition was seeded in triplicate.
After three days of treatment (Day 11), cells were assayed for cell survival using the commercially available CellTiter-Glo® (CTG) Luminescent Cell Viability Assay (Promega Corporation, Madison, Wis.). The assay determines the number of viable cells in culture based on the quantitation of ATP present which is an indicator of metabolically active cells.
The experiments performed for assessing the effect of these other Bcl-2 inhibitors were performed essentially as described in Example 7. […]

COC1=CC(c2cc3ccccc3[nH]2)=N/C1=C\c1[nH]c(C)cc1C [Obatoclax]
selective targeting of senescent cells over non-senescent cells: inability
